Source: PubChem BioAssay AID2662 (National Center for Advancing Translational Sciences (NCATS), 2010)
In all, about 290,000 compounds went through this assay and about 110 (0.038%) were called active. Inconclusive results, whose numbers are uncertain, are shown with a selection of clear calls. Calls come from the whole dose curve; as a rule, active = well fitted inhibition curve with a large enough effect in the polarisation, with a control signal flat (not every such curve was filed as active); inconclusive = small, poorly fitted or top-dose-only effect, or effect the other way, or a change in a side signal; inactive = no such curve, though single readings can be large or run the other way; the % refers to the polarisation. Where the call is inconclusive, the potency comes from a doubtful curve fit. A note “side channel” means that the fit belongs to a control or component signal, not to the main read-out.

By UniProt entry, the sequences of proteins in these tests, tags left out.
UniProt Q03164, whole entry, looked up: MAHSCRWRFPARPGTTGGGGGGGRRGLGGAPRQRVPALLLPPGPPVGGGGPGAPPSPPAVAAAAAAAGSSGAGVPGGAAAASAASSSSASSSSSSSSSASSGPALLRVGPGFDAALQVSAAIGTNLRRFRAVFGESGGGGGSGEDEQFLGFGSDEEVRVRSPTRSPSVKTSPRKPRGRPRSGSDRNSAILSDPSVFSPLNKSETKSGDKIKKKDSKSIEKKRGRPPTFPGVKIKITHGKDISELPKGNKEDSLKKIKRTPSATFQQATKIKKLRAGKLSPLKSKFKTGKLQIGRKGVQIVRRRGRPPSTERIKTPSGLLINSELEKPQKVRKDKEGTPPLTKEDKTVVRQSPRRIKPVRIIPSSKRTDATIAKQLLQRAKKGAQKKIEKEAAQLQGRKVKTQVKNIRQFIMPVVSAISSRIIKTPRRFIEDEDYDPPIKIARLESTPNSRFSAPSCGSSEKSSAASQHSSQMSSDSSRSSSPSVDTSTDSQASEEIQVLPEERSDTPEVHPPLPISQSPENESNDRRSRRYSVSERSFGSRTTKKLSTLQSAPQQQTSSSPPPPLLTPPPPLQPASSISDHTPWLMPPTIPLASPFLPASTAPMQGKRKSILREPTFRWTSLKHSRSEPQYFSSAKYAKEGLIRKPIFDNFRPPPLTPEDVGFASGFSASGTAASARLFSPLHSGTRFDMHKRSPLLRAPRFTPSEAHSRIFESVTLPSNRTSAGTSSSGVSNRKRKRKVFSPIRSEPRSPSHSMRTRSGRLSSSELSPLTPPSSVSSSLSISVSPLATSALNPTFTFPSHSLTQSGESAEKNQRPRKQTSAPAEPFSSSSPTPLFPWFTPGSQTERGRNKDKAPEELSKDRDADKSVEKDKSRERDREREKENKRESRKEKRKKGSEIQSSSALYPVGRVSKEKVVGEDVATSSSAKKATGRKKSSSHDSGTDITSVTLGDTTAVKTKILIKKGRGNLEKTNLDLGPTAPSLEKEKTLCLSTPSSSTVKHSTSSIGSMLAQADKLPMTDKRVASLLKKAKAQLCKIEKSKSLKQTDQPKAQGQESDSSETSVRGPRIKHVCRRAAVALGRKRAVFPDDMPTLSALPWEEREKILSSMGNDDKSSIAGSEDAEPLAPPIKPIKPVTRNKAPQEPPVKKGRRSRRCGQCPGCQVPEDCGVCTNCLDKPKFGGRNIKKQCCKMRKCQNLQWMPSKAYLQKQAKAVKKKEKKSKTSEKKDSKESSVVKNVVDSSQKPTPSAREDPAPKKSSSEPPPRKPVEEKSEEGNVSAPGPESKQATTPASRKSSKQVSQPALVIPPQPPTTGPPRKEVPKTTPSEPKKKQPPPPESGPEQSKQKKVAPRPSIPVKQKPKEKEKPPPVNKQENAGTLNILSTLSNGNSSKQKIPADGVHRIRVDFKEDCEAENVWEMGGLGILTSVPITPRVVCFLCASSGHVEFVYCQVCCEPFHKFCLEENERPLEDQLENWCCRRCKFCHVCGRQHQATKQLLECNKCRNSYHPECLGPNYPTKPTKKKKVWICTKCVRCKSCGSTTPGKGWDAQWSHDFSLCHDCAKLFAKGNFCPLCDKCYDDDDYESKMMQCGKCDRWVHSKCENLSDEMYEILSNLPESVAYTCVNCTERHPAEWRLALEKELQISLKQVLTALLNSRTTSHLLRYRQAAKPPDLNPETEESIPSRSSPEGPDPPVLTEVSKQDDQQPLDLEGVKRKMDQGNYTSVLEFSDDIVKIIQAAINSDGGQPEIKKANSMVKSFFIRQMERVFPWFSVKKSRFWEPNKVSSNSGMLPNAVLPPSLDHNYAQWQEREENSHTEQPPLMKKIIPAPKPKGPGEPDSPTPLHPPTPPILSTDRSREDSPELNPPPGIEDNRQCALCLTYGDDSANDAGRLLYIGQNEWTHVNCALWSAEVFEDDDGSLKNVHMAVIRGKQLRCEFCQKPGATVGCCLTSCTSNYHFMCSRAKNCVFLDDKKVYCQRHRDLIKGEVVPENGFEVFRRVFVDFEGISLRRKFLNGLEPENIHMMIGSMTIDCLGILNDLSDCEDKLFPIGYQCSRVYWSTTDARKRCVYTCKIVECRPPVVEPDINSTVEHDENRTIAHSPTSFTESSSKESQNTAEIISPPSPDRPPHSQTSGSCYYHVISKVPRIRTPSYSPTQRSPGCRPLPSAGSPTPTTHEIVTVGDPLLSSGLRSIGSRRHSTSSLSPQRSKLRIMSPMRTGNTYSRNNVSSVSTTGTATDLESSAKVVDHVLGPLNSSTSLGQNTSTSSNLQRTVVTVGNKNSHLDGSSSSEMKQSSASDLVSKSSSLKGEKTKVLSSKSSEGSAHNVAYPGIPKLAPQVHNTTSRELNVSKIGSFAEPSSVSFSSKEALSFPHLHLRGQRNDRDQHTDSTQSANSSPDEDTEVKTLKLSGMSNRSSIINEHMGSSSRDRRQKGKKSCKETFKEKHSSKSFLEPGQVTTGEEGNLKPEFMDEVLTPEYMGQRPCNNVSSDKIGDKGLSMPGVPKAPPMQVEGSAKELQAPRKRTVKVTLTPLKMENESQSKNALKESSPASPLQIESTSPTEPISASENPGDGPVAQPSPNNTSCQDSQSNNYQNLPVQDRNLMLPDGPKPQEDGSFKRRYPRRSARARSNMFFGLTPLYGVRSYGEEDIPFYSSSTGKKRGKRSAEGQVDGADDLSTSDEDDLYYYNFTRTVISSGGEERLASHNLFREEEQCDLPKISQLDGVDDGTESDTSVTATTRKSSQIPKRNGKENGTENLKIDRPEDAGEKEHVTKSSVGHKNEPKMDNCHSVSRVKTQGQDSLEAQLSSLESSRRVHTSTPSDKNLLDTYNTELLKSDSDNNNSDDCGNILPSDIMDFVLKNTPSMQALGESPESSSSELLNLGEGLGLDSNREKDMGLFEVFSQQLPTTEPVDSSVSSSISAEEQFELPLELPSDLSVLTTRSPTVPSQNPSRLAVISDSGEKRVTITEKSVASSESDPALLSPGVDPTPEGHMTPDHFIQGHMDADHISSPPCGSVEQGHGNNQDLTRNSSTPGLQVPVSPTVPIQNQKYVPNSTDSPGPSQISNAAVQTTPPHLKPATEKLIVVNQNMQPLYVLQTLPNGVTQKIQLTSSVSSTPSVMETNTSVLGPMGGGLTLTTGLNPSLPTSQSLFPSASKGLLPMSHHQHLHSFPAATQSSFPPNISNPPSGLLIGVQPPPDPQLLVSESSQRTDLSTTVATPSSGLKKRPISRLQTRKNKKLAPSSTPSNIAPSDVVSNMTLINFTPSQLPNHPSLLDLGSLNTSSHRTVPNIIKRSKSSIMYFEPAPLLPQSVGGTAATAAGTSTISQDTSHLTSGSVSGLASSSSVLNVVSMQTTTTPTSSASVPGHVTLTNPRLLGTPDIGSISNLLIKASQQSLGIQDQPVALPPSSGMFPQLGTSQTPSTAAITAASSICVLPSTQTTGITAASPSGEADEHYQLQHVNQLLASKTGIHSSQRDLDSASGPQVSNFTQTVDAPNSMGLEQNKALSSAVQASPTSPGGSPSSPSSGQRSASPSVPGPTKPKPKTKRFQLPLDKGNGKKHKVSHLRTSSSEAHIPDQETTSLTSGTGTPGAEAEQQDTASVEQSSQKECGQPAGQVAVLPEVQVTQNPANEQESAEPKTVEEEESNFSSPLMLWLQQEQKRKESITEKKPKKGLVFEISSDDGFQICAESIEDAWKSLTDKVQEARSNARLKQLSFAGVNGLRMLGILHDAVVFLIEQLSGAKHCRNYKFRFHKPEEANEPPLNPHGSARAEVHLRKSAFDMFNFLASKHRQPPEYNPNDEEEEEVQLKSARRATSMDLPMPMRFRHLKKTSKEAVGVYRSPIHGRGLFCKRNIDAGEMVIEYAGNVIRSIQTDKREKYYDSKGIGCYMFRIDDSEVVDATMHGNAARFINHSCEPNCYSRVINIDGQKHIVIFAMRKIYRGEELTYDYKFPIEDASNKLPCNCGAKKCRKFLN

These compounds were tested against Histone-lysine N-methyltransferase 2A (Homo sapiens) (UniProt Q03164) (assay: qHTS Fluorescence Polarization Assay for Inhibitors of MLL CXXC domain - DNA interaction). Details: MLL-CXXC / FITC-HOXA9 DNA fluorescence polarization; series mostly up to 115 µM.
In short: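 Steps: dispense CXXC domain solution (7 uM) → pin compounds or unlabeled HOX-A9 DNA control → 5 min ambient → add FLSN-HOX-A9 solution (50 nM) → spin → 30 min ambient → fluorescence polarization. Tris pH 7.5/NaCl/DTT/BSA buffer.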
Potency is the fitted concentration of half-maximal effect.

Structure (SMILES)	Potency
COc1ccnc2c1c(=O)n(Cc1ccccc1Cl)c(=O)n2C	inactive
C[N+]1(CC(=O)NNc2c3ccccc3nc3ccccc23)CCOCC1	inconclusive: 35.5 µM [fluorescent, side channel, partial curve]
COc1cc2cc(CN(CCc3cccc(C)c3)C(=S)NCCCN(C)C)c(=O)[nH]c2cc1OC	inconclusive: 12.6 µM [inhibitor, single point]
CCOCCCNc1nc2c(C)cccn2c(=O)c1/C=C1\SC(=S)N(C(C)CC)C1=O (stereo unspecified)	inconclusive: 17.8 µM [fluorescent, side channel, partial curve]
Cc1ccc(C2(CCN)CCOC(C(C)C)C2)cc1 (stereo unspecified)	inactive
CCOC(=O)C1=C(C)N=c2s/c(=C\c3ccc(OC(C)=O)cc3)c(=O)n2C1/C=C/c1ccccc1 (stereo unspecified)	inconclusive: 8.91 µM [fluorescent, side channel, full curve]
Cc1nc(N=Nc2ccc(C(=O)O)cc2)c(COP(=O)(O)O)c(C=O)c1O	inconclusive: 39.8 µM [inhibitor, partial curve]
COc1ccc2nc(NC(=O)c3ccoc3C)sc2c1	inactive
CNC(=S)N1CCN(S(=O)(=O)c2ccc3ccccc3c2)CC1	inactive
O=c1[nH]c(CN2CCCCC2)nc2c1C1(CCCCC1)Cc1ccccc1-2	inactive
N#C/C(=C\c1ccc(O)c(Br)c1)C(=O)N1CCCCC1	inconclusive: 70.8 µM [inhibitor, single point]
CC1(C)CC(N2CCCC2)=CC(=[N+]2CCCCC2)C1	inactive
CC1=CC(C)(C)n2c(O)c(N=N)c3c(C)c(C)cc1c32	inconclusive: 3.98 µM [inhibitor, full curve, poor fit]
O=[N+]([O-])c1ccc(Oc2ccc(S(=O)(=O)Nc3ccccc3)cc2)cc1	inactive
Cc1ccc(C)c(S(=O)(=O)NCCCn2ccnc2)c1	inconclusive: 1.26 µM [fluorescent, side channel, full curve, poor fit]
CC(C)C(=O)Nc1ccc(C(=O)NNC(=S)NC(=O)c2cccs2)cc1	inconclusive: 15.8 µM [fluorescent, side channel, single point]
O=C(O)c1ccc(Nc2c3ccccc3nc3ccccc23)cc1	inactive
COC(=O)C1=C(C)N(Cc2ccccc2)C(=NCc2ccccc2)N[C@H]1c1ccccc1	inconclusive: 11.2 µM [quencher, side channel, partial curve]
CCOC(=O)C1(Cc2ccccc2)CCCN(C(=O)c2ccc(-n3ccnc3)cc2)C1 (stereo unspecified)	inconclusive: 10 µM [inhibitor, partial curve]
CC(C)NC(=O)C1CCN(C2CCN(C(=O)c3cc4c(s3)CCCCC4)CC2)CC1	inconclusive: 3.55 µM [inhibitor, partial curve]
Cc1ccc(C(C2=C(O)CC(C)(C)CC2=O)C2C(=O)CC(C)(C)CC2=O)s1 (stereo unspecified)	inconclusive: 35.5 µM [inhibitor, single point]

Structure (SMILES)	Potency
COc1cccc2sc3ccc(C#CC4(N)CCCCC4)cc3c(=O)c12	inconclusive: 31.6 µM [quencher, side channel, partial curve]
O=C(O)CCCC(=O)Nc1nc(-c2ccccc2)cs1	inactive
COc1ccc(-c2noc(CSc3nnc(Cc4ccccc4)n3-c3cccc(C)c3)n2)cc1OC	inactive
CCN(CC)Cc1c(O)c(Cl)cc2c(C)cc(=O)oc12	inconclusive: 22.4 µM [fluorescent, side channel, partial curve]
Cc1ccc(C(=O)N2CCCC(N(C)Cc3ccccc3)C2)s1 (stereo unspecified)	inactive
Cn1c(=O)c2c(nc(N/N=C/c3ccc(OC(=O)c4ccco4)cc3)n2Cc2ccccc2)n(C)c1=O	inactive
COc1ccc(C)cc1N/C(N)=N/c1nc(C)cc(C)n1	inconclusive: 56.2 µM [fluorescent, side channel, partial curve]
Cc1nn2c(nc(N3CCOCC3)c3ccccc32)c1C=C(C#N)C#N	inconclusive: 35.5 µM [quencher, side channel, single point]
CCOC(=O)/C(=C\C=C1/Sc2cc(OCC)c(OCC)cc2N1CC)C(C)=O	inconclusive: 31.6 µM [fluorescent, side channel, partial curve, poor fit]
COc1ccc(/C=C(/CC(=O)Nc2ccc(C)cc2)c2nc3ccccc3s2)cc1	inconclusive: 39.8 µM [fluorescent, side channel, partial curve]
CCOC(=O)c1c(-c2ccccc2)csc1NC(=O)c1nn(CC)cc1Br	inactive
CC[n+]1ccc(/C=C/c2c[nH]c3ccccc23)cc1	inconclusive: 35.5 µM [fluorescent, side channel, partial curve]
O=C(c1cccc(NS(=O)(=O)c2ccc(F)c(F)c2)c1)N1CCN(C(c2ccccc2)c2ccccc2)CC1	inactive
CC1(C)CC(=O)C(C2C3=C(CC(C)(C)CC3=O)Oc3ccc4ccccc4c32)C(=O)C1 (stereo unspecified)	inconclusive: 1 µM [inhibitor, full curve, poor fit]
O=C(NNc1cc(N2CCOCC2)nc(N2CCOCC2)n1)c1ccc([N+](=O)[O-])cc1	inconclusive: 35.5 µM [inhibitor, single point]
O=C(O)CN1C(=O)/C(=C\c2cn(CC(=O)N3CCOCC3)c3ccccc23)SC1=S	inconclusive: 17.8 µM [fluorescent, side channel, partial curve]
CC1(C)CC2CC(C)(CN2Cc2c(O)ccc3ccccc23)C1 (stereo unspecified)	inactive
O=C(C[n+]1ccc(C(=O)N/N=C/c2ccc(Br)cc2)cc1)c1ccccc1	inconclusive: 39.8 µM [quencher, side channel, single point]
CN(C)c1nc(=Nc2cccc(Cl)c2)ss1	inconclusive: 63.1 µM [fluorescent, side channel, single point]
CCCCCCCn1c2c(c(=N)c3ccccc31)CCC2	inconclusive: 10 µM [inhibitor, single point]

Exported as comma-separated lines: part of the list above.
Structure (SMILES),Potency
COc1ccc(-c2noc(CSc3nnc(Cc4ccccc4)n3-c3cccc(C)c3)n2)cc1OC,inactive
CCN(CC)Cc1c(O)c(Cl)cc2c(C)cc(=O)oc12,"inconclusive: 22.4 µM [fluorescent, side channel, partial curve]"
Cn1c(=O)c2c(nc(N/N=C/c3ccc(OC(=O)c4ccco4)cc3)n2Cc2ccccc2)n(C)c1=O,inactive
CCOC(=O)/C(=C\C=C1/Sc2cc(OCC)c(OCC)cc2N1CC)C(C)=O,"inconclusive: 31.6 µM [fluorescent, side channel, partial curve, poor fit]"
CC[n+]1ccc(/C=C/c2c[nH]c3ccccc23)cc1,"inconclusive: 35.5 µM [fluorescent, side channel, partial curve]"
CC1(C)CC(=O)C(C2C3=C(CC(C)(C)CC3=O)Oc3ccc4ccccc4c32)C(=O)C1 (stereo unspecified),"inconclusive: 1 µM [inhibitor, full curve, poor fit]"
CC1(C)CC2CC(C)(CN2Cc2c(O)ccc3ccccc23)C1 (stereo unspecified),inactive
CCCCCCCn1c2c(c(=N)c3ccccc31)CCC2,"inconclusive: 10 µM [inhibitor, single point]"
